Data as given in patent publication US20120100361A1, “ANTISEPTIC COMPOSITION FOR ENGINEERING WOOD PRODUCTION, AND ENGINEERING WOOD” (SDS BIOTECH K.K., priority 2009, published 2012).
The name of at least one read-out is uncertain.

Legend:
[1] = test system: fungus cellar soil-bed; assay: Fungus cellar soil-bed test of preservative LVL (JIS K1571:2004); conditions: 25° C., grade 0 sound condition to 5 out of shape due to the decay
Protocol: (§1) 1000 g of the phenol resin-based glue Deernol D-117 (manufactured by Oshika Corporation), 70 g of wheat flour and 100 g of calcium carbonate were mixed and well kneaded. A solution of each of the compounds of Example 1 and Comparative Example 1, 2 and 5 to 25 was added to the kneaded product so that the final concentrations of the compound in the wood become 150, 100, 50 and 25 g/m^3 and further kneaded. 18 g of the above kneaded product was applied onto each of the surface of glue line of the three Radiata pine veneer sheets having an area of 30 x 30 cm and thickness of 3 mm. After bonding the three sheets to each other, the sheets were subjected to cold pressing at room temperature for 20 minutes and the thermal pressure of 140° C. (10 kgf/cm^2) was applied to the sheets for two minutes to obtain the target LVL. Each of the prepared LVL was processed into the size of 20×20×9 mm to serve as a test sample.
The preservative LVL was prepared in the same manner in Preparation Example 3. Each of the prepared LVL was processed into the size of 9×9×100 mm to serve as a test sample.
(§2) The samples of the plywood and LVL prepared in Preparation Examples 4 and 5 were evaluated by the fungus cellar soil-bed test according to JIS K1571:2004. The weather resistance operation and the test method for the antiseptic effect were performed according to the above test method. The test was carried out for six months setting the test temperature to 25° C. (because the grade average of the decay damage of the non-treated test samples exceeded 2.5 in six months). […] The effect in the glue line treatment was actually investigated with respect to a number of existing antiseptics, and it was confirmed that only epoxyconazole is suitable for the glue line treatment at a low concentration.

[2] = test system: Fomitopsis palustris; assay: Test for antiseptic effects of preservative plywood (JIS K1571:2004); assay type: cell-based; conditions: plywood, urea melamine resin, Fomitopsis palustris
Protocol: (§3) 1000 g of urea melamine resin (PWP-60, manufactured by Oshika Corporation) was added to 180 g of wheat flour and fully kneaded to thereby obtain a kneaded product. 8 g of ammonium chloride was added as a hardening agent to the kneaded product, and a solution of each of the compounds of Example 1 and Comparative Example 1, 2 and 5 to 25 was further added thereto so that the final concentrations of the compound in the wood become 150, 100, 50 and 25 g/m^3 and kneaded. 18 g of the above kneaded product was applied onto each of the bonding plane of the three red lauan veneer sheets having an area of 30 x 30 cm and thickness of 0.85 mm/2.4 mm/0.85 mm. After bonding the three sheets to each other, the sheets were subjected to cold pressing at room temperature for 20 minutes and the thermal pressure of 120° C. (10 kgf/cm^2) was applied to the sheets for two minutes to obtain the target plywood. Each of the prepared plywood was processed into the size of 20×20×4.1 mm to serve as a test sample.
(§4) The samples of the plywood and LVL prepared in Preparation Examples 2 and 3 were evaluated by the test for antiseptic effects for the drug pressure treatment according to JIS K1571:2004. The weather resistance operation and the test method for the antiseptic effect were performed according to the above test method.

[3] = test system: Trametes versicolor; assay: as above; assay type: cell-based; conditions: urea melamine resin
Protocol: as §3, §4

[4] = test system: fungus cellar soil-bed; assay: Fungus cellar soil-bed test of preservative plywood (JIS K1571:2004); conditions: 25° C., grade 0 sound condition to 5 out of shape due to the decay
Protocol: as §3
The preservative plywood was prepared in the same manner in Preparation Example 2. Each of the prepared plywood was processed into the size of 8.9 x 8.9×100 mm to serve as a test sample.
as §2

[5] = test system: Fomitopsis palustris; assay: Test for antiseptic effects of preservative LVL (JIS K1571:2004); assay type: cell-based; conditions: phenol resin
Protocol: as §1, §4

[6] = test system: Trametes versicolor; assay: as above; assay type: cell-based; conditions: phenol resin
Protocol: as §1, §4

[7] = treated amount 25 g/m^3, six months
[8] = treated amount 50 g/m^3, six months
[9] = treated amount 100 g/m^3, six months
[10] = treated amount 150 g/m^3, six months

SMILES | Grade average of the decay damage of five test samples [1, 7] | Grade average of the decay damage of five test samples [1, 8] | Grade average of the decay damage of five test samples [1, 9] | Grade average of the decay damage of five test samples [1, 10] | average rate of decrease in weight ([2]; treated amount 25 g/m^3) | average rate of decrease in weight ([2]; treated amount 50 g/m^3) | average rate of decrease in weight ([2]; treated amount 100 g/m^3) | average rate of decrease in weight ([2]; treated amount 150 g/m^3) | average rate of decrease in weight ([3]; treated amount 25 g/m^3) | average rate of decrease in weight ([3]; treated amount 50 g/m^3) | average rate of decrease in weight ([3]; treated amount 100 g/m^3) | average rate of decrease in weight ([3]; treated amount 150 g/m^3) | Grade average of the decay damage of five test samples [4, 7] | Grade average of the decay damage of five test samples [4, 8] | Grade average of the decay damage of five test samples [4, 9] | Grade average of the decay damage of five test samples [4, 10] | average rate of decrease in weight ([5]; treated amount 25 g/m^3) | average rate of decrease in weight ([5]; treated amount 50 g/m^3) | average rate of decrease in weight ([5]; treated amount 100 g/m^3) | average rate of decrease in weight ([5]; treated amount 150 g/m^3) | further results
CC(C)(C)C(O)(CCc1ccc(Cl)cc1)Cn1cncn1 (stereo not drawn) [Comparative Example 6, tebuconazole] | 3.0 | 3.2 | 3.0 | 3.0 | X (The average rate of decrease in weight was 3% or more.) | X (The average rate of decrease in weight was 3% or more.) | X (The average rate of decrease in weight was 3% or more.) | X (The average rate of decrease in weight was 3% or more.) | X (The average rate of decrease in weight was 3% or more.) | X (The average rate of decrease in weight was 3% or more.) | X (The average rate of decrease in weight was 3% or more.) | X (The average rate of decrease in weight was 3% or more.) | 3.0 | 3.4 | 2.8 | 3.2 | X (The average rate of decrease in weight was 3% or more.) | X (The average rate of decrease in weight was 3% or more.) | X (The average rate of decrease in weight was 3% or more.) | X (The average rate of decrease in weight was 3% or more.) | average rate of decrease in weight ([6]; treated amount 25 g/m^3): X (The average rate of decrease in weight was 3% or more.); average rate of decrease in weight ([6]; treated amount 50 g/m^3): X (The average rate of decrease in weight was 3% or more.); average rate of decrease in weight ([6]; treated amount 100 g/m^3): X (The average rate of decrease in weight was 3% or more.); average rate of decrease in weight ([6]; treated amount 150 g/m^3): X (The average rate of decrease in weight was 3% or more.)
C[Si](C)(C)CC(O)(Cn1cncn1)c1ccc(F)cc1 (stereo not drawn) [Comparative Example 8, simeconazole] | 2.8 | 3.2 | 3.2 | 2.6 | X (The average rate of decrease in weight was 3% or more.) | X (The average rate of decrease in weight was 3% or more.) | X (The average rate of decrease in weight was 3% or more.) | X (The average rate of decrease in weight was 3% or more.) | X (The average rate of decrease in weight was 3% or more.) | X (The average rate of decrease in weight was 3% or more.) | X (The average rate of decrease in weight was 3% or more.) | X (The average rate of decrease in weight was 3% or more.) | 3.0 | 2.8 | 3.0 | 3.0 | X (The average rate of decrease in weight was 3% or more.) | X (The average rate of decrease in weight was 3% or more.) | X (The average rate of decrease in weight was 3% or more.) | X (The average rate of decrease in weight was 3% or more.) | average rate of decrease in weight ([6]; treated amount 25 g/m^3): X (The average rate of decrease in weight was 3% or more.); average rate of decrease in weight ([6]; treated amount 50 g/m^3): X (The average rate of decrease in weight was 3% or more.); average rate of decrease in weight ([6]; treated amount 100 g/m^3): X (The average rate of decrease in weight was 3% or more.); average rate of decrease in weight ([6]; treated amount 150 g/m^3): X (The average rate of decrease in weight was 3% or more.)
N#CC(CCc1ccc(Cl)cc1)(Cn1cncn1)c1ccccc1 (stereo not drawn) [Comparative Example 9, fenbuconazole] | 3.4 | 2.6 | 2.6 | 2.6 | X (The average rate of decrease in weight was 3% or more.) | X (The average rate of decrease in weight was 3% or more.) | X (The average rate of decrease in weight was 3% or more.) | X (The average rate of decrease in weight was 3% or more.) | X (The average rate of decrease in weight was 3% or more.) | X (The average rate of decrease in weight was 3% or more.) | X (The average rate of decrease in weight was 3% or more.) | X (The average rate of decrease in weight was 3% or more.) | 3.4 | 3.2 | 2.8 | 3.6 | X (The average rate of decrease in weight was 3% or more.) | X (The average rate of decrease in weight was 3% or more.) | X (The average rate of decrease in weight was 3% or more.) | X (The average rate of decrease in weight was 3% or more.) | average rate of decrease in weight ([6]; treated amount 25 g/m^3): X (The average rate of decrease in weight was 3% or more.); average rate of decrease in weight ([6]; treated amount 50 g/m^3): X (The average rate of decrease in weight was 3% or more.); average rate of decrease in weight ([6]; treated amount 100 g/m^3): X (The average rate of decrease in weight was 3% or more.); average rate of decrease in weight ([6]; treated amount 150 g/m^3): X (The average rate of decrease in weight was 3% or more.)
